For one sequence, Kd results are on record in paper PMC8755082, “Recognition of G-quadruplex RNA by a crucial RNA methyltransferase component, METTL14”.

For at least one entry, the source does not settle the construct or the ends of the probe.

This data set concerns METTL3 MTD (MTD3) + METTL14 MTD-RGG (MTD14-RGG). The data set can be described thus: EMSA. The conditions noted are these: Li+ buffer (G4 not formed); EMSA: 2.5 nM RNA, 10 mM potassium (or lithium) phosphate pH 7.5, 25 uM ZnCl2, 10 uM SAM, 0.5 mM DTT, 0.005% Tween 20, 2.5% ficoll, 50 ng/uL yeast tRNA, 4 C, 1 h; recombinant protein; protein details: Strep-tag II,His6; label: 5' FAM. In general terms: Mobility shift assays separate free from complexed probe on a gel.

By Kd is commonly meant the concentration at which binding is half-saturated. “UUAGGGUUAGGGUUUUAGACAUUUUUUAGGGUUAGGG [G4 RNA1]”: the Kd came out at 0.131 µM.
